Results: US20220096411A1, “COMBINING METABOLIC STIMULATION AND AMINO ACIDS TO SENSITIZE TOLERANT BACTERIA TO ANTIBIOTICS” (priority 2019, published 2022)

System: Escherichia coli K12 strain MG1655
Experiment: MIC determination (metabolite-enabled MIC from optical density dose-response)
Format: cell-based
Settings: with pyruvate (FIG. 2E) or without metabolic stimulant (FIG. 2F); ampicillin potentiated, comparators D-cycloserine, ciprofloxacin, gentamicin are the non-β-lactams

`O=C(O)c1cn(C2CC2)c2cc(N3CCNCC3)c(F)cc2c1=O` [ciprofloxacin, reference compound] was tested, and the “potentiation of the antibiotic by D-amino acids” value was “specific to β-lactam antibiotics”.
